From PMC12548414
In all, about 1,600 compounds went through this assay and about 20 (1%) showed an effect of 50% or more. The list shows a part of the results.

These compounds were tested on T1, E. coli pLC1021 (luc-trpAt trans-translation reporter). Conditions: reporter signal, KKL-35 = 100%; rise means trans-translation inhibition; 2 h, 20 µM.
T1 construct: pLC1021 luc-trpAt reporter strain
Parameters: species or system Escherichia coli pLC1021; luc-trpAt non-stop luciferase reporter; luminescence rises when trans-translation is inhibited; normalized to KKL-35 and DMSO
Method in brief: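 Luminescence (560 nm, 10 min after Bright-Glo) reports luciferase that escapes trans-translation tagging, measured after 2 h room-temperature treatment with 20 µM compound. Each plate was scaled between DMSO (negative) and 20 µM KKL-35 (positive) controls. Compounds scoring one standard deviation above the median counted as positive; at least two biological repeats.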
For `Brc1ccc(C2C=C(c3ccccc3)Nc3ncnn32)cc1` (stereo not drawn) [KKL-1205], the “% activation” value was 1%. With `c1cc(C2CCCCC2)ccc1-c1cnnc(N2CCOCC2)n1` [KKL-1120] the “% activation” value was 0%. With `O=C(Oc1ccc(Cl)c2cccnc12)C12CC3CC(CC(C3)C1)C2` [KKL-0981] the “% activation” value was 8%. In the case of `COc1cccc(OCC(=O)c2ccc(Br)cc2)c1` [KKL-0975], the “% activation” value is reported as 0%. With `O=C(Nc1nc2c(F)cc(F)cc2s1)c1ccccn1` [KKL-0924] the “% activation” value was 0%. In the case of `Brc1ccc(Nc2nc(-c3ccccn3)cs2)cc1` [KKL-1367], the “% activation” value is reported as 0%. With `CCCN=C1C(=O)c2ccccc2C(O)=C1N(C(C)=O)c1cccc(F)c1` [KKL-0978] the “% activation” value was 0%. `CCn1c(NC(=O)c2ccccc2)nc2ccccc21` [KKL-0359] was tested, and the “% activation” value was 6%. For `CCOC(=O)c1ccc2ncc(C(=O)OCC)c(NCc3cccnc3)c2c1` [KKL-0536], the “% activation” value was 0%. In the case of `Nc1cc(OCc2ccccc2)ccc1Nc1ccccc1` [KKL-1718], the “% activation” value is reported as 0%. For `O=C(Nc1nc(-c2ccccn2)cs1)c1cncn1-c1ccccc1` [KKL-1881], the “% activation” value was 5%. With `CCc1cc(I)ccc1NC(=O)c1ccc([N+](=O)[O-])o1` [KKL-1553] the “% activation” value was 0%. With `CCCCOC(=O)COc1ccc2c(=O)c(Oc3ccc(OCC)cc3)c(C)oc2c1` [KKL-0777] the “% activation” value was 11%. With `FC(F)(F)c1cccc(-n2cc(-c3ccccc3)c3c(NCc4cccnc4)ncnc32)c1` [KKL-1573] the “% activation” value was 0%. In the case of `O=C(NCc1ccc2c(c1)OCO2)c1c(C(F)(F)F)nc2ccccn12` [KKL-1769], the “% activation” value is reported as 0%. `CC(C)(C)c1ccc(-c2nc(NCc3cccnc3)c3ccccc3n2)cc1` [KKL-0355] was tested, and the “% activation” value was 1%. With `COC(=O)CSc1nnc(-c2ccc(Cl)cc2)o1` [KKL-0598] the “% activation” value was 0%. `CC1(C)NC(N)=NC(=N)N1OCCCOc1ccc(Cl)cc1Cl` [KKL-1743] was tested, and the “% activation” value was 18%. In the case of `Cc1cccc(C(=O)NC(=S)N2CCC(C)CC2)c1` [KKL-1430], the “% activation” value is reported as 0%. In the case of `Cc1ccnc(N2C(=O)c3cccc4c([N+](=O)[O-])ccc(c34)C2=O)c1` [KKL-1403], the “% activation” value is reported as 0%. `Cc1ccc(-n2cc(CN(C)CCn3ccnc3)c(-c3cccc(C)c3)n2)cc1` [KKL-0351] was tested, and the “% activation” value was 0%. With `COc1ccc(-c2cnnc(NCC(C)Oc3cccnc3)n2)c(OC)c1` (stereo not drawn) [KKL-0520] the “% activation” value was 3%. With `CCc1sc(NC(=O)c2cnc(SC)nc2)nc1-c1ccc(F)cc1` [KKL-0670] the “% activation” value was 5%. With `C=CCN1C(=N)S/C(=C2\C(=O)Nc3ccccc32)C1=O` [KKL-0768] the “% activation” value was 1%. With `CSc1ccc(NC(=O)N2CCC(CO)(CCOc3ccccc3)CC2)cc1` [KKL-0652] the “% activation” value was 3%. In the case of `O=S(=O)(Nc1cc(Sc2cccc3cccnc23)c(O)c2ccccc12)c1ccccc1` [KKL-1539], the “% activation” value is reported as 0%. `O=C(/C=C/c1cccc(C(F)(F)F)c1)Nc1cccc(Br)c1` [KKL-1494] was tested, and the “% activation” value was 0%. For `CCOc1cccc(N2C(=O)CC(SC(=N)NN=C(C)c3ccc(Cl)s3)C2=O)c1` (stereo not drawn) [KKL-1503], the “% activation” value was 1%. With `COc1ccc(-c2nnc(SCC(=O)Nc3cc(C)on3)o2)cc1` [KKL-0807] the “% activation” value was 0%. With `Cc1nc2c(-c3ccc(Cl)cc3)c(C)nn2c(O)c1Cc1ccccc1` [KKL-0883] the “% activation” value was 0%. For `CCOCCOC(=O)COc1ccc2c(-c3ccccc3)cc(=O)oc2c1` [KKL-1109], the “% activation” value was 3%. `Cc1ccc(C(=O)NC(=S)N(C)Cc2ccccc2)cc1` [KKL-1452] was tested, and the “% activation” value was 2%. With `CCOC(=O)C1=C(NC(=O)Nc2ccc(Cl)c(Cl)c2)Nc2ccccc2N=C1CC` [KKL-0821] the “% activation” value was 0%. `c1ccc(-c2nnc(Sc3ccnc(N4CCN(c5ccncc5)CC4)n3)n2CCCN2CCOCC2)nc1` [KKL-1731] was tested, and the “% activation” value was 4%. With `CC(=O)C1=C(C)NC(SCC(=O)c2ccc(Cl)c(Cl)c2)=C(C#N)C1c1ccco1` (stereo not drawn) [KKL-1059] the “% activation” value was 2%. For `O=C(OCC#CCSc1nnc(-c2ccccc2)o1)c1ccco1` [KKL-1631], the “% activation” value was 4%. For `CCOC(=O)COc1ccc(S(=O)(=O)Nc2cccc(Cl)c2C)cc1` [KKL-0774], the “% activation” value was 3%. For `c1cnc(N2CCN(c3nncc(-c4ccc(C5CCCCC5)cc4)n3)CC2)cn1` [KKL-0667], the “% activation” value was 0%. `C/C=C/c1ccc(OCC(=O)OCc2csc(Nc3ccc(C)cc3)n2)c(OC)c1` [KKL-0820] was tested, and the “% activation” value was 0%. With `CN1CCC(O)(c2cccs2)C(C(=O)c2cccs2)C1` (stereo not drawn) [KKL-0578] the “% activation” value was 3%. For `CC(=NNc1nc(C)c(C)s1)c1ccc(Br)cc1` [KKL-0422], the “% activation” value was 0%. With `CCCCc1ccc(NC(=O)c2cc3cc(Br)cc(OC)c3oc2=O)cc1` [KKL-1446] the “% activation” value was 8%. `Cc1cccc(NC(=O)c2ccc([N+](=O)[O-])o2)c1` [KKL-1080] was tested, and the “% activation” value was 0%. With `CSc1ncc(C(=O)N2CCc3c([nH]c4ccc(Cl)cc34)C2)cn1` [KKL-0555] the “% activation” value was 0%. In the case of `Cc1ccc(C(=O)Nc2ccc([N+](=O)[O-])cc2C)cc1I` [KKL-1273], the “% activation” value is reported as 0%. With `Cc1oc(-c2ccc3ccccc3c2)nc1CN1CCN(c2cnccn2)CC1` [KKL-0659] the “% activation” value was 0%. `O=C(CN1CCN(Cc2ccccc2)CC1)Nc1ccc([N+](=O)[O-])cc1C(=O)c1ccccc1` [KKL-1480] was tested, and the “% activation” value was 0%. In the case of `N#Cc1ccc(/C=C/C(=O)c2cccnc2)cc1` [KKL-0392], the “% activation” value is reported as 0%. `COc1ccc(OCC(O)Cn2c(=N)n(CCN3CCCCC3)c3ccccc32)cc1` (stereo not drawn) [KKL-1200] was tested, and the “% activation” value was 4%. In the case of `Cc1ccc(NC(=O)c2cc3cc(Cl)cc(Cl)c3oc2=O)c(C)c1` [KKL-1505], the “% activation” value is reported as 7%. In the case of `c1ccc(N2CCN(c3nc(-c4ccccn4)nc4ccccc34)CC2)cc1` [KKL-0375], the “% activation” value is reported as 0%. With `Cc1cc2ncn(Cc3ccc(C(C)C)cc3)c2cc1C` [KKL-1584] the “% activation” value was 0%. For `Cc1ccc(-n2cc(CN(C)Cc3nccs3)c(-c3cccc(C)c3)n2)cc1` [KKL-0522], the “% activation” value was 8%. `O=C(Nc1nnc(C2CCCCC2)s1)c1sc2ccccc2c1Cl` [KKL-1507] was tested, and the “% activation” value was 1%. `COC(=O)CCCC(=O)N1CCC(C(=O)Nc2ccc(-c3nc4ccccc4o3)cc2)CC1` [KKL-1160] was tested, and the “% activation” value was 0%. For `OC(COc1ccccc1Cl)CN1CCN(C(c2ccccc2)c2ccccc2)CC1` (stereo not drawn) [KKL-0920], the “% activation” value was 0%. `N#Cc1cc(C(F)(F)F)c2nc(C(=O)NCc3cccs3)c(Cl)n2c1` [KKL-1827] was tested, and the “% activation” value was 1%. For `CCSc1nnc(NC(=O)c2ccccn2)s1` [KKL-0948], the “% activation” value was 0%. `COc1ccc(-c2cc(NC(=O)c3cnc(SC)nc3)n(C)n2)cc1` [KKL-0687] was tested, and the “% activation” value was 0%. In the case of `COc1ccccc1CN1CCCCC1C(=O)Nc1ccc(-n2cccn2)cc1` (stereo not drawn) [KKL-0494], the “% activation” value is reported as 3%. With `CCOC(=O)COc1ccc(S(=O)(=O)N2CCC(C)CC2)cc1` [KKL-1457] the “% activation” value was 0%. For `COc1ccc2nc(C)cc(OCC(=O)Nc3ccccc3OC)c2c1` [KKL-1843], the “% activation” value was 3%. For `Cc1ccc(OCCN2CCN(c3nc(NCc4ccccc4)c4ccccc4n3)CC2)cc1` [KKL-1415], the “% activation” value was 0%. With `COc1ccc(-c2cc(NC(=O)c3ccc(F)cc3Cl)ccc2OC)cc1` [KKL-1837] the “% activation” value was 0%. For `CC(=O)n1cc(N(C(=O)CCl)c2ccccc2)c2ccccc21` [KKL-0370], the “% activation” value was 0%. `CCOc1ccc(NCCC(=O)c2cccs2)cc1` [KKL-1384] was tested, and the “% activation” value was 0%. With `CN(C)C(S)=Nc1nc2ccccc2s1` [KKL-0288] the “% activation” value was 2%. For `Oc1cccc2ccc(/C=C/c3cccs3)nc12` [KKL-1069], the “% activation” value was 45%. With `CCOC(=O)COc1ccc2c(=O)c(-c3ccccc3OC)coc2c1` [KKL-1077] the “% activation” value was 1%. For `O=[N+]([O-])c1ccc(-c2[nH]c(-c3cccc(F)c3)nc2-c2ccccc2)cc1` [KKL-0750], the “% activation” value was 0%. In the case of `O=C(N[C@@H]1CN(C(=O)Nc2ccc(OC(F)(F)F)cc2)CCC[C@H]1O)c1ccc(OCCN2CCCC2)cc1` [KKL-0336], the “% activation” value is reported as 0%. `CCN(CC)C(=S)NC(=O)c1ccc(Cl)cc1` [KKL-1447] was tested, and the “% activation” value was 20%. With `Cc1ccc(C(=O)NCCC2=CCCCC2)cc1Br` [KKL-1393] the “% activation” value was 0%. In the case of `CCC(Sc1nc2ccccc2o1)C(=O)Nc1nccs1` (stereo not drawn) [KKL-1824], the “% activation” value is reported as 3%. For `CCCn1nc(C)c(-c2cc(C(=O)Nc3ccc(CN4CCCCCC4)cc3)[nH]n2)c1C` [KKL-0334], the “% activation” value was 0%. For `Cc1nc2ccccn2c1C(=O)NCc1ccc2c(c1)OCO2` [KKL-1647], the “% activation” value was 1%. `NCC(c1cccs1)S(=O)(=O)c1ccccc1` (stereo not drawn) [KKL-1721] was tested, and the “% activation” value was 0%. `O=C(Nc1ccco1)N1CCN(Cc2cccs2)CC1` [KKL-1841] was tested, and the “% activation” value was 1%. With `COC(=O)CN1C(c2ccc(OC)cc2)=Nc2ccc(Cl)cc2C1c1ccccc1` (stereo not drawn) [KKL-0850] the “% activation” value was 0%. `CCOC(=O)N1CCN(C(=O)CSc2nnc(-c3cc(OC)cc(OC)c3)o2)CC1` [KKL-1123] was tested, and the “% activation” value was 0%. In the case of `CCn1cc(C(=O)NCc2cccc(F)c2)c(=O)c2cc(F)c(N3CCN(C(=O)c4ccco4)CC3)cc21` [KKL-0876], the “% activation” value is reported as 8%. `CC(C)(C)NC(=O)c1cc2cc([N+](=O)[O-])ccc2oc1=O` [KKL-1320] was tested, and the “% activation” value was 0%. For `CN1CCN(c2ccc(NC(=S)NC(=O)c3ccc(-c4cccc(Cl)c4)o3)cc2)CC1` [KKL-0357], the “% activation” value was 18%. For `Cc1ccc(NC(=O)N2CCC(c3nc(O)c4nnn(Cc5cccc(Cl)c5)c4n3)CC2)cc1` [KKL-1618], the “% activation” value was 0%. In the case of `CCn1cc(C(=O)O)c(=O)c2cc(F)c(N3CCN(C(S)=Nc4cc(C(F)(F)F)ccc4Cl)CC3)cc21` [KKL-1476], the “% activation” value is reported as 5%. With `O=C(/C=C/c1ccc(Cl)cc1Cl)c1cccnc1` [KKL-0383] the “% activation” value was 0%. With `c1cn(CCCNc2nncc(-c3ccc(C4CCCCC4)cc3)n2)cn1` [KKL-1171] the “% activation” value was 8%.
